Reference: PubChem BioAssay AID1224828 (NIAID, 2016)

Test: 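Regulators linking TLR4 signalling to p65 nuclear translocation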 (primary screen)
Cells: mouse RAW264.7 G9 macrophage reporter cells (GFP-p65, Tnf promoter-mCherry)
Reagent: siRNA pool against mouse genes, 100 nM
Timing: 2 days siRNA transfection, then 40 min LPS before fixation
Treatment: LPS (Salmonella minnesota R595) at 10 ng/ml
Measurement: 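Imaged p65 nuclear translocation ratio, normalised to the plate median, converted to robust z-scores and averaged across two replicates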
Direction: p65 translocation robust z-score: higher = more nuclear NF-kappaB p65 after LPS than the plate median; nuclear/cytoplasmic p65 ratio: higher = more nuclear NF-kappaB p65
Call rule: 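Active if robust z is above 3.3 (negative regulators) or below -1.56, the Tlr4 control median (positive regulators); activity score 50 or more; control wells not called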
Meaning of the calls: active = hit (p65 shift raised or lowered); inactive = no clear change
The deposit covers about 17,000 reagents; shown is an unselected part. 762 of them (4.5%) count as active. 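Active calls include both raised and lowered p65 entry, mostly lowered; wells with fewer than 50 cells lack a z-score.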 Raw values are not corrected between plates. The numbers tell different reagents against one gene apart.

| target | pool no. | p65 translocation robust z-score | nuclear/cytoplasmic p65 ratio, rep 1 | nuclear/cytoplasmic p65 ratio, rep 2 | low cell count flag | outcome |
| --- | --- | --- | --- | --- | --- | --- |
| Urm1 | 1 | – | 0.921 | 1.16 | fewer than 50 cells per well; well left out of scoring | inactive |
| Or4c126 | 1 | 1.95 | 1.81 | 1.76 | enough cells to score | inactive |
| Nat8 | 1 | 0.46 | 1.59 | 1.38 | enough cells to score | inactive |
| Nasp | 1 | 0.82 | 1.91 | 1.72 | enough cells to score | inactive |
| Id3 | 1 | -0.87 | 1.29 | 1.29 | enough cells to score | inactive |
| Phlda3 | 1 | 1.58 | 1.65 | 1.68 | enough cells to score | inactive |
| Ndufs2 | 1 | 0.67 | 1.53 | 1.43 | enough cells to score | inactive |
| Ercc6l2 | 1 | 0.47 | 1.58 | 1.54 | enough cells to score | inactive |
| Paqr3 | 1 | 0.22 | 1.67 | 1.62 | enough cells to score | inactive |
| 1700029M20Rik | 1 | – | 1.11 | 1.28 | fewer than 50 cells per well; well left out of scoring | inactive |
| Sash3 | 1 | -0.59 | 1.32 | 1.34 | enough cells to score | inactive |
| Or4k15c | 1 | – | 1.74 | 1.23 | fewer than 50 cells per well; well left out of scoring | inactive |
| Sirpa | 1 | -0.19 | 1.51 | 1.35 | enough cells to score | inactive |
| Bsdc1 | 1 | 0.96 | 1.46 | 1.61 | enough cells to score | inactive |
| Sla | 1 | -0.19 | 1.55 | 1.5 | enough cells to score | inactive |
| Or5ac19 | 1 | -1.55 | 1.36 | 1.24 | enough cells to score | inactive |
| Ddah2 | 1 | -1.77 | 1.29 | 1.32 | enough cells to score | active |
| Atp1a1 | 1 | 2.25 | 1.91 | 1.85 | enough cells to score | inactive |
| T | 1 | -1.88 | 1.54 | 1.3 | enough cells to score | active |
| Il3ra | 1 | -0.19 | 1.43 | 1.38 | enough cells to score | inactive |
| C530043A13Rik | 1 | 1.3 | 1.56 | 1.75 | enough cells to score | inactive |
| Tmem100 | 1 | 1.16 | 1.51 | 1.66 | enough cells to score | inactive |
| Cpeb3 | 1 | 0.05 | 1.73 | 1.63 | enough cells to score | inactive |
| Slitrk3 | 1 | – | 1.63 | 1.25 | fewer than 50 cells per well; well left out of scoring | inactive |
| Or5w11 | 1 | – | 0 | 1.29 | fewer than 50 cells per well; well left out of scoring | inactive |
| Atp6v1b1 | 1 | 0.64 | 1.82 | 1.61 | enough cells to score | inactive |
| Kcnq1 | 1 | 0.04 | 1.37 | 1.48 | enough cells to score | inactive |
| Usp46 | 1 | -0.2 | 1.55 | 1.61 | enough cells to score | inactive |
| Pald1 | 1 | -0.7 | 1.38 | 1.3 | enough cells to score | inactive |
| Syt13 | 1 | – | 1.5 | 1.21 | fewer than 50 cells per well; well left out of scoring | inactive |
| Mcm8 | 1 | 0.99 | 1.82 | 1.74 | enough cells to score | inactive |
| Adprhl1 | 1 | -0.3 | 1.6 | 1.55 | enough cells to score | inactive |
| Hmgxb4 | 1 | -0.2 | 1.39 | 1.37 | enough cells to score | inactive |
| Mir9-2hg | 1 | -0.55 | 1.42 | 1.38 | enough cells to score | inactive |
| Zeb1 | 1 | -0.32 | 1.5 | 1.43 | enough cells to score | inactive |
| Wdr59 | 1 | 0.66 | 1.41 | 1.59 | enough cells to score | inactive |
| Nrxn1 | 1 | 0.99 | 2.09 | 1.49 | enough cells to score | inactive |
| Gcm2 | 1 | -1.82 | 1.18 | 1.15 | enough cells to score | active |
| Or4p8 | 1 | 0.43 | 1.82 | 1.56 | enough cells to score | inactive |
| Adamtsl1 | 1 | 0.12 | 1.41 | 1.45 | enough cells to score | inactive |
| Htra2 | 1 | -0.43 | 1.42 | 1.37 | enough cells to score | inactive |
| Zfp385c | 1 | – | 1.25 | 1.23 | fewer than 50 cells per well; well left out of scoring | inactive |
| Or5g27 | 1 | -0.18 | 1.36 | 1.27 | enough cells to score | inactive |
| Tdpoz1 | 1 | -0.52 | 1.34 | 1.13 | enough cells to score | inactive |
| Hs1bp3 | 1 | – | 1.36 | 1.51 | fewer than 50 cells per well; well left out of scoring | inactive |
| Sumo1 | 1 | 2.12 | 1.55 | 2.17 | enough cells to score | inactive |
| Lamc1 | 1 | -0.72 | 1.38 | 1.28 | enough cells to score | inactive |
| Cdkn1b | 1 | 0.23 | 1.75 | 1.39 | enough cells to score | inactive |
| Foxf2 | 1 | -1.34 | 1.23 | 1.22 | enough cells to score | inactive |
| Zfp799 | 1 | -0.82 | 1.18 | 1.43 | enough cells to score | inactive |
| Myoc | 1 | -0.04 | 1.33 | 1.44 | enough cells to score | inactive |
| Vps39 | 1 | 0.41 | 1.43 | 1.28 | enough cells to score | inactive |
| Bltp3b | 1 | 1.49 | 1.66 | 1.38 | enough cells to score | inactive |
| Timp1 | 1 | 1.7 | 1.75 | 1.77 | enough cells to score | inactive |
| Marcks | 1 | -1.21 | 1.19 | 1.2 | enough cells to score | inactive |
| Tardbp | 1 | -0.94 | 1.38 | 1.45 | enough cells to score | inactive |
| Or56b1 | 1 | 1.76 | 1.37 | 1.47 | enough cells to score | inactive |
| Spout1 | 1 | -1.5 | 1.35 | 1.34 | enough cells to score | inactive |
| Slco1b2 | 1 | – | 0 | 0 | fewer than 50 cells per well; well left out of scoring | inactive |
| Pde4dip | 1 | -0.31 | 1.32 | 1.19 | enough cells to score | inactive |
| Pde4dip | 2 | -0.2 | 1.35 | 1.57 | enough cells to score | inactive |
| Pde4dip | 3 | -0.19 | 1.58 | 1.71 | enough cells to score | inactive |
| Prdx1 | 1 | 0.12 | 1.53 | 1.41 | enough cells to score | inactive |
| Stk32a | 1 | 0.55 | 1.59 | 1.29 | enough cells to score | inactive |
| Atn1 | 1 | 0.14 | 1.47 | 1.42 | enough cells to score | inactive |
| 2900005J15Rik | 1 | – | 1.55 | 1.53 | fewer than 50 cells per well; well left out of scoring | inactive |
| Sulf2 | 1 | 0.02 | 1.54 | 1.57 | enough cells to score | inactive |
| Or10al4 | 1 | – | 1.53 | 1.57 | fewer than 50 cells per well; well left out of scoring | inactive |
| Tram1l1 | 1 | – | 1.45 | 1.22 | fewer than 50 cells per well; well left out of scoring | inactive |
| Inpp5d | 1 | -0.46 | 1.38 | 1.36 | enough cells to score | inactive |
| 2510039O18Rik | 1 | -0.39 | 1.27 | 1.41 | enough cells to score | inactive |
| Stradb | 1 | -1.71 | 1.34 | 1.23 | enough cells to score | active |
| Slfn1 | 1 | – | 1.3 | 1.04 | fewer than 50 cells per well; well left out of scoring | inactive |
| Cd8a | 1 | -0.45 | 1.38 | 1.32 | enough cells to score | inactive |
| Tango2 | 1 | 0.59 | 1.68 | 1.61 | enough cells to score | inactive |

Sorted by “nuclear/cytoplasmic p65 ratio, rep 2” (ascending): 7 of the entries above.
| target | pool no. | p65 translocation robust z-score | nuclear/cytoplasmic p65 ratio, rep 1 | nuclear/cytoplasmic p65 ratio, rep 2 | low cell count flag | outcome |
| --- | --- | --- | --- | --- | --- | --- |
| Id3 | 1 | -0.87 | 1.29 | 1.29 | enough cells to score | inactive |
| Nat8 | 1 | 0.46 | 1.59 | 1.38 | enough cells to score | inactive |
| Ndufs2 | 1 | 0.67 | 1.53 | 1.43 | enough cells to score | inactive |
| Ercc6l2 | 1 | 0.47 | 1.58 | 1.54 | enough cells to score | inactive |
| Phlda3 | 1 | 1.58 | 1.65 | 1.68 | enough cells to score | inactive |
| Nasp | 1 | 0.82 | 1.91 | 1.72 | enough cells to score | inactive |
| Or4c126 | 1 | 1.95 | 1.81 | 1.76 | enough cells to score | inactive |
